Laboratory results: PubChem BioAssay AID504784 (Drosophila RNAi Screening Center, 2011)
The deposit covers about 17,000 reagents; shown is a random part of those that have a named target and a result. 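Each column is one replicate's B-score; the combined score over replicates was not deposited, so single values may mislead.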 Further read-outs or replicates are left out here.

Assay: 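Search for regulators of lipid droplet storage in oleate-fed fly cells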 (primary screen)
System: Drosophila Kc167 embryonic cells
Knock-down reagent: long dsRNA against Drosophila genes, about 250 ng dsRNA per well
Duration: 4 days
Treatment: cells fed 400 µM oleic acid bound to BSA
Detection: 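Cells imaged and segmented; ratio of lipid droplet area to nuclear area, log-transformed, then normalised as a B-score over the screen; higher means more stored lipid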
Direction: droplet/nuclear area B-score: higher = more stored lipid (overstorage)

What did the screen give for CG32486 (GeneID 38367) [DRSC08413]?
droplet/nuclear area B-score, replicate 1: 0.386

For CG32486 (GeneID 38367) [DRSC08488], what does the deposit list?
droplet/nuclear area B-score, replicate 1: -0.517

With dpr11 (GeneID 40800) [DRSC12561], what was measured?
droplet/nuclear area B-score, replicate 1: -0.216

With dpr11 (GeneID 40800) [DRSC12562], what does the deposit list?
droplet/nuclear area B-score, replicate 1: 0.00987

With dpr11 (GeneID 40800) [DRSC12563], what does the deposit list?
droplet/nuclear area B-score, replicate 1: 0.361

What is on record for thoc6 (GeneID 39394) [DRSC10528]?
droplet/nuclear area B-score, replicate 1: 1.29

Which result is listed for CG11327 (GeneID 33940) [DRSC02146]?
droplet/nuclear area B-score, replicate 1: 0.266

Which result is listed for Ir40a (GeneID 35449) [DRSC03732]?
droplet/nuclear area B-score, replicate 1: -0.525

With Ir40a (GeneID 35449) [DRSC03733], how do the results read?
droplet/nuclear area B-score, replicate 1: 0.0297

How did the screen score neo (GeneID 43523) [DRSC16316]?
droplet/nuclear area B-score, replicate 1: -0.324

With Syn1 (GeneID 40424) [DRSC11803], how do the results read?
droplet/nuclear area B-score, replicate 1: -0.429

For Syn1 (GeneID 40424) [DRSC11804], what does the deposit list?
droplet/nuclear area B-score, replicate 1: 0.0265

What is on record for CG6901 (GeneID 41977) [DRSC16129]?
droplet/nuclear area B-score, replicate 1: 4.4

With spir (GeneID 45931) [DRSC03619], how do the results read?
droplet/nuclear area B-score, replicate 1: -1.02

With CG13707 (GeneID 38583) [DRSC08316], how do the results read?
droplet/nuclear area B-score, replicate 1: -0.581

For egr (GeneID 36054) [DRSC06233], how do the results read?
droplet/nuclear area B-score, replicate 1: 0.178

With CG10151 (GeneID 36639) [DRSC05974], how do the results read?
droplet/nuclear area B-score, replicate 1: -1.03

For CG31431 (GeneID 326138) [DRSC14589], what does the deposit list?
droplet/nuclear area B-score, replicate 1: 0.914

Which result is listed for Proc (GeneID 250710) [DRSC03009]?
droplet/nuclear area B-score, replicate 1: 1.09

With Proc (GeneID 250710) [DRSC22998], what was measured?
droplet/nuclear area B-score, replicate 1: 0.0672

With TbCMF46 (GeneID 34318) [DRSC02221], what was measured?
droplet/nuclear area B-score, replicate 1: -0.381

Which result is listed for CtsK2 (GeneID 36973) [DRSC06897]?
droplet/nuclear area B-score, replicate 1: 2.59

With CG31870 (GeneID 318993) [DRSC21681], how do the results read?
droplet/nuclear area B-score, replicate 1: 0.379

What is on record for CG4360 (GeneID 42413) [DRSC15566]?
droplet/nuclear area B-score, replicate 1: -0.674

What is on record for lawc (retired record) (GeneID 45395) [DRSC22531]?
droplet/nuclear area B-score, replicate 1: -2.98

With lawc (retired record) (GeneID 45395) [DRSC23208], what was measured?
droplet/nuclear area B-score, replicate 1: -0.38

Which result is listed for Dus4 (GeneID 35179) [DRSC02066]?
droplet/nuclear area B-score, replicate 1: -0.04

With Act42A (GeneID 35526) [DRSC04835], how do the results read?
droplet/nuclear area B-score, replicate 1: -0.28

What is on record for l(2)gd1 (GeneID 34543) [DRSC02773]?
droplet/nuclear area B-score, replicate 1: -0.406

Which result is listed for yl (GeneID 32367) [DRSC20387]?
droplet/nuclear area B-score, replicate 1: -1.56

What did the screen give for Bap60 (GeneID 32268) [DRSC19337]?
droplet/nuclear area B-score, replicate 1: 3.96

What did the screen give for CG9727 (GeneID 40794) [DRSC12585]?
droplet/nuclear area B-score, replicate 1: -0.505

What did the screen give for wake (GeneID 42676) [DRSC16148]?
droplet/nuclear area B-score, replicate 1: 0.307

For wake (GeneID 42676) [DRSC16149], what was measured?
droplet/nuclear area B-score, replicate 1: 1.92

How did the screen score CG11286 (GeneID 40919) [DRSC14293]?
droplet/nuclear area B-score, replicate 1: 0.0958

For CG13040 (GeneID 39804) [DRSC09921], what does the deposit list?
droplet/nuclear area B-score, replicate 1: 1.19

How did the screen score Cubn (GeneID 326235) [DRSC18256]?
droplet/nuclear area B-score, replicate 1: 0.478

With ppk25 (GeneID 2768722) [DRSC04973], how do the results read?
droplet/nuclear area B-score, replicate 1: -0.593

What did the screen give for AANATL6 (GeneID 37212) [DRSC06773]?
droplet/nuclear area B-score, replicate 1: 0.413

How did the screen score CAP (GeneID 36084) [DRSC06743]?
droplet/nuclear area B-score, replicate 1: -0.0486

What did the screen give for CAP (GeneID 36084) [DRSC06744]?
droplet/nuclear area B-score, replicate 1: 2.24

What is on record for CAP (GeneID 36084) [DRSC06745]?
droplet/nuclear area B-score, replicate 1: -1.4

What is on record for CAP (GeneID 36084) [DRSC06846]?
droplet/nuclear area B-score, replicate 1: -0.114

What did the screen give for Ilp4 (GeneID 39152) [DRSC10701]?
droplet/nuclear area B-score, replicate 1: -0.0868

With RhoGAP15B (GeneID 32686) [DRSC19924], what was measured?
droplet/nuclear area B-score, replicate 1: -0.283

For RhoGAP15B (GeneID 32686) [DRSC19925], how do the results read?
droplet/nuclear area B-score, replicate 1: -1.81

For CG12920 (GeneID 36052) [DRSC06234], how do the results read?
droplet/nuclear area B-score, replicate 1: 1.17

For Fen1 (GeneID 36887) [DRSC07415], how do the results read?
droplet/nuclear area B-score, replicate 1: -2.13

For Rnmt (GeneID 34877) [DRSC03558], how do the results read?
droplet/nuclear area B-score, replicate 1: -0.368

What did the screen give for Or63a (GeneID 38354) [DRSC08681]?
droplet/nuclear area B-score, replicate 1: 1.6

For CG14221 (GeneID 32961) [DRSC19578], what does the deposit list?
droplet/nuclear area B-score, replicate 1: 0.348

Reprinted from the listing for reference:
neo (GeneID 43523) [DRSC16316] | droplet/nuclear area B-score, replicate 1: -0.324
Syn1 (GeneID 40424) [DRSC11803] | droplet/nuclear area B-score, replicate 1: -0.429
Syn1 (GeneID 40424) [DRSC11804] | droplet/nuclear area B-score, replicate 1: 0.0265
